The test addresses recombinant Anopheles gambiae SRPN6 (rAgSRPN6), full-length, excluding the signal peptide (Anopheles gambiae). Description: AUC; sedimentation velocity; rAgSRPN6 1.0 mg/ml in 20 mM Tris, 250 mM NaCl, pH 8.0; 49,000 rpm, 25°C; monitored at 280 nm; g(s*) fit in DCDT+; both purified.

No constants are given. Whether binding was seen depends on the method and setting.

B1: recombinant Anopheles gambiae SRPN6 (rAgSRPN6), full-length, excluding the signal peptide (protein)
chain: QWNRYYTQAPQARYTPMVRTAQRVALRHSFETDGTPAPSTVRPRPPAPPTNAPSQLPALTPDNDAKISQLVVDFMMRISRTLPQQQSRTELFSPLSIITVANLLFLGSGGSTHEEFGKVLTPSSMNWKRMHQRYGNVLANLMSPEPIDSRRDQWRRQTCPRDDDYEDGEGGPAPKSQVIRVANGIFYQKDLPMRQQYVMLARSLYGALIQPIDPQASAASTALINRWVSDVTAGKIRNMLEGPLSPSSSVVIANALYFKAKWKTQFEPLVTRDAPFFPDGLDGPSYRVKMMSMSGCLPFYRVRDSLDTTIVGLPYRDDTSTMYLIQPANSSRTAIRRLQATLTGKMLDSWISQMKLQSTMVRLPKMHLRNSVDLLQSFQKLGFNSILSPAKSDLSNMIDSSSSAGPKPYVNQILHKLDLTIDEEGTEGAAATSALVDRIGSQRQFNGNAPFLIYLRHDATGLPLFYGPIFDPR
Consider B1, for which the binding result is reported as “no binding (tested: 1.0 mg/ml)”.

The values are drawn from publication PMC3494705.
